PubChem BioAssay AID1259254 – NCATS, 2017

Aim: 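Gene knock-downs that lead to re-replication, shown by excess G2 DNA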 (primary screen)
Cells: human HCT116 colorectal cancer cells
Reagent: single siRNA against human genes
Time to read-out: 3 days
Measurement: 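Nuclei stained with Hoechst and imaged; cell-cycle phase assigned by DNA content; G2 share scaled per plate, non-targeting siRNA 0%, GMNN siRNA 100%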
Scale: G2 robust z-score and G2 cells, % of GMNN control: higher = more G2 cells, more excess DNA replication; raw share of cells in G2: higher = larger share of cells with G2 DNA content
Call rule: 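An siRNA counts as active if its G2 robust z-score lies at least 5 MADs above the screen median; here such calls match roughly 38% of GMNN control or more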
In all, the deposit lists about 59,000 reagents; this is a random part of them. Over the whole deposit, about 1,550 (2.6%) got an active call. 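G2 share is only a proxy for re-replication; each gene was hit by three separate siRNAs, and active genes were retested.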 Raw values vary from plate to plate and are shown uncorrected. Unmarked entries are inactive. Reagents against one gene are numbered here. Not stated in the record: the amount of reagent.

The first 7 entries, to show the layout:
gene knocked down,reagent no.,G2 robust z-score,"G2 cells, % of GMNN control",raw share of cells in G2 (%)
KLHL40,1,3.55,28,14.7
KLHL40,2,0.0367,3.23,4.13
KLHL40,3,1.22,11.5,6.76
SNRK,1,0,2.97,6.27
SNRK,2,-1.17,-5.26,3.95
SNRK,3,0.373,5.59,5.47
CDH24,1,-0.716,-2.07,3.47

Main list, from the start:
gene knocked down,reagent no.,G2 robust z-score,"G2 cells, % of GMNN control",raw share of cells in G2 (%)
KLHL40,1,3.55,28,14.7
KLHL40,2,0.0367,3.23,4.13
KLHL40,3,1.22,11.5,6.76
SNRK,1,0,2.97,6.27
SNRK,2,-1.17,-5.26,3.95
SNRK,3,0.373,5.59,5.47
CDH24,1,-0.716,-2.07,3.47
CDH24,2,-1.35,-6.53,2.04
CDH24,3,-1.85,-10.1,1.48
ACOT2,1,-1.36,-6.6,2.83
ACOT2,2,0.229,4.58,8.28
ACOT2,3,0.109,3.74,5.05
TK1,1,2.31,19.2,11.9
TK1,2,-1.23,-5.67,3.5
TK1,3,-1.13,-4.96,2.28
SNRPB2,1,0.163,4.12,5.96
SNRPB2,2,0.298,5.06,5.63
SNRPB2,3,-0.87,-3.16,4.62
WFDC1,1,1.97,16.8,10.3
WFDC1,2,0.102,3.68,5.65
WFDC1,3,5.79 (active),43.7,23.8
OR4F15,1,-0.244,1.25,4.2
OR4F15,2,-0.0975,2.28,4.4
OR4F15,3,4.87,37.2,20.6
XKRX,1,0.31,5.15,5.68
XKRX,2,-0.96,-3.79,2.01
XKRX,3,-0.711,-2.04,3.95
SUGT1,1,-0.773,-2.47,4.02
SUGT1,2,-0.601,-1.26,3.61
SUGT1,3,-0.264,1.11,3.59
SERINC5,1,-0.454,-0.229,3.49
SERINC5,2,2.84,22.9,11
SERINC5,3,0.136,3.93,4.45
PRRG2,1,0.318,5.2,7.19
PRRG2,2,1.16,11.1,8.62
PRRG2,3,-0.497,-0.528,3.16
OSTCP2,1,-0.0231,2.8,3.93
OSTCP2,2,2.65,21.6,11.9
OSTCP2,3,-0.0391,2.69,4.22
PTPN11P4,1,-0.0117,2.89,4.86
PTPN11P4,2,-0.706,-2,2.72
PTPN11P4,3,-0.251,1.2,5.29
CUL4B,1,0.784,8.48,8.89
CUL4B,2,0.177,4.21,5.56
CUL4B,3,-0.633,-1.48,2.82
ODR4,1,2,17.1,9.71
ODR4,2,1.59,14.2,10.2
ODR4,3,0.942,9.6,6.36
CDH22,1,-0.0659,2.5,5.13
CDH22,2,4.35,33.5,16.2
CDH22,3,0.0924,3.62,7.14
GPRASP1,1,-0.917,-3.49,3.76
GPRASP1,2,-0.421,0.00451,3.95
GPRASP1,3,0.926,9.48,6.86
USP3,1,4.99,38.1,18.8
USP3,2,-0.801,-2.67,3.96
USP3,3,-1.18,-5.32,1.93
RAMP2,1,-0.358,0.45,5.89
RAMP2,2,-1.44,-7.15,3.66
RAMP2,3,-0.976,-3.9,2.58
GHRH,1,0.743,8.19,8.21
GHRH,2,0.868,9.08,8.71
GHRH,3,0.54,6.76,6.07
TMEM59L,1,-1,-4.07,1.87
TMEM59L,2,0.31,5.15,6.35
TMEM59L,3,-0.912,-3.45,2.45
PGLYRP2,1,1.14,11,8.62
PGLYRP2,2,0.3,5.08,7.15
PGLYRP2,3,0.609,7.25,9.04
